Values from PubChem BioAssay AID686938 (Drosophila RNAi Screening Center, 2013).
The screen tested about 23,000 reagents; shown is a random part of those with a known target gene and a result. Of all reagents, 75 (0.33%) are marked active. 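Raw plate signals without normalisation; calls rest on plate z-scores that were not deposited; ratio present for only 364 wells.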 The numbers tell different reagents against one gene apart. A plus sign joins genes that one reagent is predicted to hit. Not stated in the record: the dose of the treatment.

Aim: 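Fly genes required for calcium entry once internal stores are emptied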 (primary screen)
Cells: Drosophila S2R+ cells
Reagent: long dsRNA against Drosophila genes, about 0.25 µg dsRNA per well, roughly 10,000 cells
Time to read-out: 5 days of knock-down before the calcium assay
Challenge: thapsigargin (SERCA pump blocker) to empty calcium stores; entry signal taken 4 min after adding it
Detection: 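Duplicate raw fluo-4 intensities per well from a plate reader, at rest and four minutes after thapsigargin emptied calcium stores; entry-to-rest ratio filled for only some wells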
Reading the numbers: calcium entry signal: higher = stronger calcium signal after store depletion; entry to resting ratio: higher = more calcium entry relative to resting level; resting calcium signal: higher = higher resting calcium signal
Rule for the call: 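Called when the plate z-score of the entry-to-rest ratio, mean of duplicates, falls below −3; wells with low overall dye signal (Fmax z below −2) or more than five off-targets excluded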
Meaning of the calls: active = strongly reduced calcium entry; inactive = no strong reduction

predicted target | reagent no. | calcium entry signal, replicate 1 (fluorescence units) | calcium entry signal, replicate 2 (fluorescence units) | entry to resting ratio | resting calcium signal, replicate 1 (fluorescence units) | resting calcium signal, replicate 2 (fluorescence units) | Outcome
spict (GeneID 34681) | 1 | 6.12e7 | – | – | 2.99e7 | – | inactive
CNT2 (GeneID 35914) | 1 | 4.72e7 | 4.23e7 | – | 2.00e7 | 1.90e7 | inactive
alpha-Man-Ic (GeneID 318624) | 1 | 4.28e7 | 3.84e7 | – | 2.28e7 | 1.87e7 | inactive
Camta (GeneID 35974) | 1 | 5.08e7 | 4.21e7 | – | 2.56e7 | 1.97e7 | inactive
Camta (GeneID 35974) | 2 | 4.07e7 | 2.81e7 | – | 2.49e7 | 1.78e7 | inactive
Camta (GeneID 35974) | 3 | 3.51e7 | 2.88e7 | – | 1.44e7 | 1.33e7 | inactive
Camta (GeneID 35974) | 4 | 4.35e7 | 2.78e7 | – | 2.41e7 | 1.35e7 | inactive
Camta (GeneID 35974) | 5 | 2.97e7 | 3.97e7 | – | 1.48e7 | 1.81e7 | inactive
park (GeneID 40336) | 1 | 4.51e7 | 4.24e7 | – | 1.88e7 | 2.86e7 | inactive
CG13526 (GeneID 37613) | 1 | 4.25e7 | 5.43e7 | – | 2.17e7 | 2.45e7 | inactive
Drsl6 (GeneID 38416) | 1 | 3.21e7 | 4.29e7 | – | 1.50e7 | 1.91e7 | inactive
Charon (GeneID 33303) | 1 | 3.45e7 | – | – | 2.28e7 | – | inactive
14-3-3zeta (GeneID 36059) | 1 | 4.41e7 | 4.15e7 | – | 2.07e7 | 1.97e7 | inactive
CG15554 (GeneID 43680) | 1 | 4.64e7 | 6.13e7 | – | 2.30e7 | 2.50e7 | inactive
sav (GeneID 252554) | 1 | 5.38e7 | 6.05e7 | – | 2.69e7 | 2.45e7 | inactive
sav (GeneID 252554) | 2 | 4.86e7 | 6.36e7 | – | 2.61e7 | 2.57e7 | inactive
CG15820 (GeneID 38277) | 1 | 3.97e7 | 3.30e7 | – | 1.73e7 | 1.74e7 | inactive
vex (GeneID 32033) | 1 | 4.00e7 | 5.49e7 | – | 1.92e7 | 2.67e7 | inactive
vex (GeneID 32033) | 2 | 4.05e7 | 6.00e7 | – | 1.95e7 | 2.81e7 | inactive
vex (GeneID 32033) | 3 | 1.82e7 | 4.54e7 | – | 1.03e7 | 2.13e7 | inactive
Fpps (GeneID 36209) | 1 | 2.60e7 | 2.39e7 | – | 1.11e7 | 1.12e7 | inactive
CG8321 (GeneID 36287) | 1 | 3.46e7 | 3.64e7 | – | 1.41e7 | 1.63e7 | inactive
TwdlS (GeneID 43209) | 1 | 2.54e7 | 4.04e7 | – | 1.41e7 | 1.79e7 | inactive
Ca-alpha1D (GeneID 34950) | 1 | 4.33e7 | – | – | 2.16e7 | – | inactive
CG31687 + Cdc23 | 1 | 3.38e7 | 4.49e7 | – | 1.64e7 | 2.25e7 | inactive
CG31882 (GeneID 319000) | 1 | 1.68e7 | 3.64e7 | – | 1.37e7 | 1.61e7 | inactive
hiro (GeneID 38083) | 1 | 4.31e7 | 3.84e7 | – | 2.09e7 | 1.86e7 | inactive
CG5172 (GeneID 32711) | 1 | 3.99e7 | 3.14e7 | – | 1.92e7 | 1.40e7 | inactive
Polr1H (GeneID 42563) | 1 | 1.71e7 | 2.04e7 | – | 9.24e6 | 1.07e7 | inactive
bdg (GeneID 36747) | 1 | 2.90e7 | 2.36e7 | – | 1.29e7 | 1.52e7 | inactive
Caf1-105 (GeneID 36107) | 1 | 3.69e7 | 4.77e7 | – | 1.81e7 | 2.06e7 | inactive
Arr2 (GeneID 38993) | 1 | 2.92e7 | 3.73e7 | – | 1.41e7 | 1.41e7 | inactive
CR16735 (GeneID 10178810) | 1 | 4.57e7 | 3.70e7 | – | 2.22e7 | 1.62e7 | inactive
CG11509 (retired record) (GeneID 31115) | 1 | 2.08e7 | 2.26e7 | – | 9.96e6 | 1.26e7 | inactive
Arpc3B (GeneID 32696) | 1 | 2.69e7 | 2.04e7 | – | 1.77e7 | 1.22e7 | inactive
CR15280 (GeneID 3885605) | 1 | 3.48e7 | 2.17e7 | – | 1.67e7 | 1.04e7 | inactive
CG15517 (GeneID 43537) | 1 | 4.92e7 | 6.44e7 | – | 2.36e7 | 2.64e7 | inactive
cnk (GeneID 36952) | 1 | 4.17e7 | 4.63e7 | – | 2.01e7 | 2.29e7 | inactive
Kif3C (GeneID 43820) | 1 | 5.50e7 | 5.47e7 | 2 | 2.72e7 | 2.28e7 | inactive
Kif3C (GeneID 43820) | 2 | 5.56e7 | 4.72e7 | 2.2 | 2.58e7 | 1.93e7 | inactive
spz5 (GeneID 38350) | 1 | 4.70e7 | 3.72e7 | – | 2.20e7 | 1.91e7 | inactive
sgl (GeneID 38760) | 1 | 4.57e7 | 3.29e7 | – | 2.64e7 | 1.59e7 | inactive
Nup93-2 (GeneID 41804) | 1 | 3.44e7 | 4.63e7 | – | 1.77e7 | 2.37e7 | inactive
CG42335 (GeneID 42558) | 1 | 3.49e7 | 4.83e7 | – | 5.71e7 | 1.99e7 | inactive
CG42335 (GeneID 42558) | 2 | 3.96e7 | 4.43e7 | – | 4.85e7 | 1.95e7 | inactive

The list goes on, starting with the last 3 of the part before.
predicted target | reagent no. | calcium entry signal, replicate 1 (fluorescence units) | calcium entry signal, replicate 2 (fluorescence units) | entry to resting ratio | resting calcium signal, replicate 1 (fluorescence units) | resting calcium signal, replicate 2 (fluorescence units) | Outcome
Nup93-2 (GeneID 41804) | 1 | 3.44e7 | 4.63e7 | – | 1.77e7 | 2.37e7 | inactive
CG42335 (GeneID 42558) | 1 | 3.49e7 | 4.83e7 | – | 5.71e7 | 1.99e7 | inactive
CG42335 (GeneID 42558) | 2 | 3.96e7 | 4.43e7 | – | 4.85e7 | 1.95e7 | inactive
CG31102 (GeneID 326118) | 1 | 3.01e7 | 5.22e7 | – | 1.68e7 | 2.30e7 | inactive
Prp39 (GeneID 43399) | 1 | 4.18e7 | 4.14e7 | – | 1.76e7 | 1.73e7 | inactive
CG4074 (GeneID 40290) | 1 | 2.54e7 | 4.67e7 | – | 1.26e7 | 1.93e7 | inactive
CG13627 (GeneID 42941) | 1 | 2.80e7 | 4.09e7 | – | 1.67e7 | 1.66e7 | inactive
CG43333 (GeneID 34830) | 1 | 4.88e7 | 3.54e7 | – | 2.19e7 | 1.78e7 | inactive
CG43333 (GeneID 34830) | 2 | 2.58e7 | 2.90e7 | – | 1.14e7 | 1.10e7 | inactive
Acbp6 (GeneID 38782) | 1 | 2.20e7 | 4.87e7 | – | 1.06e7 | 2.03e7 | inactive
Nsun2 (GeneID 45064) | 1 | 4.40e7 | 4.00e7 | – | 2.11e7 | 1.86e7 | inactive
shg (GeneID 37386) | 1 | 3.95e7 | – | – | 1.89e7 | – | inactive
CG33181 (GeneID 318916) | 1 | 3.54e7 | 3.91e7 | – | 1.67e7 | 1.73e7 | inactive
CG33181 (GeneID 318916) | 2 | 3.33e7 | 6.24e7 | – | 1.76e7 | 3.05e7 | inactive
CG6295 (GeneID 43247) | 1 | 2.87e7 | 4.61e7 | – | 1.44e7 | 1.97e7 | inactive
CG32365 (GeneID 38876) | 1 | 3.52e7 | 4.42e7 | – | 1.55e7 | 1.94e7 | inactive
CG32365 (GeneID 38876) | 2 | 2.05e7 | 2.59e7 | – | 1.36e7 | 1.32e7 | inactive
CG32365 (GeneID 38876) | 3 | 2.48e7 | 3.14e7 | – | 1.40e7 | 1.74e7 | inactive
CG1701 (GeneID 35661) | 1 | 3.49e7 | 3.22e7 | – | 1.59e7 | 2.13e7 | inactive
Usp8 (GeneID 42509) | 1 | 5.72e7 | 4.13e7 | – | 2.81e7 | 1.88e7 | inactive
CG17821 (GeneID 37159) | 1 | 5.23e7 | 5.82e7 | – | 2.22e7 | 2.71e7 | inactive
Gr32a (GeneID 34545) | 1 | 3.53e7 | 5.18e7 | – | 1.72e7 | 2.10e7 | inactive
CG12374 (GeneID 36410) | 1 | 3.85e7 | 3.68e7 | – | 1.95e7 | 1.72e7 | inactive
CG32248 (GeneID 317938) | 1 | 5.05e7 | 4.01e7 | – | 2.68e7 | 1.79e7 | inactive
CG5087 (GeneID 39035) | 1 | 3.39e7 | 4.70e7 | – | 1.56e7 | 2.05e7 | inactive
Cyp28d1 (GeneID 33749) | 1 | 4.16e7 | – | – | 2.01e7 | – | inactive
Cyp28d1 (GeneID 33749) | 2 | 2.58e7 | 2.58e7 | – | 1.42e7 | 1.34e7 | inactive
EMC1 (GeneID 40933) | 1 | 2.36e7 | 2.54e7 | – | 8.64e6 | 1.21e7 | inactive
CG3618 (GeneID 40303) | 1 | 4.56e7 | 5.01e7 | – | 2.06e7 | 3.52e7 | inactive
CG7407 (GeneID 40430) | 1 | 3.30e7 | 3.96e7 | – | 1.57e7 | 2.60e7 | inactive
CG4751 (GeneID 34551) | 1 | 4.06e7 | – | – | 1.83e7 | – | inactive
Muc4B (GeneID 31368) | 1 | 3.46e7 | 4.47e7 | – | 2.12e7 | 2.33e7 | inactive
Muc4B (GeneID 31368) | 2 | 2.93e7 | 4.66e7 | – | 1.51e7 | 2.21e7 | inactive
